Data as given in publication PMC7819943, “Rice protein-binding microarrays: a tool to detect cis-acting elements near promoter regions in rice”.
The other results are listed elsewhere or left out.

The sequences below were run against T1, OsSMF1 (Oryza sativa, UniProt Q6ZLB0 1-436) (assay: protein-binding microarray (RPBM); PBS, 2% BSA, 51.3 ng/ul salmon testes DNA, 50 uM zinc acetate, 200 nM TF, 25 C, 1 h; high values mean tight binding). Settings: protein: recombinant; tags: N-terminal polyhistidine and DsRed monomer fusion (pET32a); chain copies: 2; label: CyDye5-dUTP incorporated in the synthesized complementary strand; 3' TTTTT single-stranded linker to array surface; dsDNA, one strand shown.
T1 sequence: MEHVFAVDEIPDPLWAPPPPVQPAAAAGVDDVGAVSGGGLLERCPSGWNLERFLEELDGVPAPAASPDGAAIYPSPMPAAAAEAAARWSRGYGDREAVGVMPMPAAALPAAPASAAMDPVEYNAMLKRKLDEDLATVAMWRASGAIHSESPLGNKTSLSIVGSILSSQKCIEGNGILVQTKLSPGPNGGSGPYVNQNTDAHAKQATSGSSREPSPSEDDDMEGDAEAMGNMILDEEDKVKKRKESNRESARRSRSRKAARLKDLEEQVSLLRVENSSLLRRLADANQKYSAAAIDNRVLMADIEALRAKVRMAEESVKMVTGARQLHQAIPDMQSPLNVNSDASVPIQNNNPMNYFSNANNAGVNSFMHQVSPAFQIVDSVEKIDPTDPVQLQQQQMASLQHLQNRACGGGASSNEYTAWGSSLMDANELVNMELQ
Procedure, shortened: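 A custom Agilent array was converted to double-stranded form by primer extension with Cy5-dUTP and blocked with 2% BSA. Protein at 200 nM in PBS with 2% BSA, salmon testes DNA and 50 µM zinc acetate was applied for 1 h at 25 °C, followed by washing. The proteins were polyhistidine–DsRed N-terminal fusions of transcription factors, expressed in E. coli BL21-CodonPlus and Ni–NTA-purified. The binding signal is per-feature fluorescence intensity (arbitrary units) from an Axon 4000B scanner.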

| Sequence | binding signal |
| --- | --- |
| CCCCGTCGTTGTCGCCACCTACTTCTACCTGCGCGGATTCCGGAGTCACCTAGTGCAG | 4830 fluorescence intensity (a.u.) |
| GGAAGGAGATGATGACAATGTTGTGGAAGCTGTTCCACGCCGGAGTCACCTAGTGCAG | 4460 fluorescence intensity (a.u.) |
| GTTCCACATGTCATCCTCTCCCTTTCTTCTTCCTCCCCTCCGGAGTCACCTAGTGCAG | 3930 fluorescence intensity (a.u.) |
| AGATTGTTTACTCACACGATGTTTTGTTGTTCTTTGTCATCGGAGTCACCTAGTGCAG | 3700 fluorescence intensity (a.u.) |
| TTGGCACTCATAAACATATATGACTCGATCTATAATAGCTCGGAGTCACCTAGTGCAG | 4890 fluorescence intensity (a.u.) |
| CTTATCTTTCTTATCTCCTCCACCTCATCATTTAGTACTACGGAGTCACCTAGTGCAG | 5700 fluorescence intensity (a.u.) |
| AAAGTGAAATGACGCTGATACTAAGTACTAGTGGTGCTATCGGAGTCACCTAGTGCAG | 3800 fluorescence intensity (a.u.) |
| GGAGAGGCCCACTGTTTCTTCCACTTCTCGCCTTGCTCGCCGGAGTCACCTAGTGCAG | 23900 fluorescence intensity (a.u.) |
| GGTGGAGAGGAATAGCGCCGTATACCTGTGTCTCGTCGTGCGGAGTCACCTAGTGCAG | 3320 fluorescence intensity (a.u.) |
| ATTATTAAATCACGAGTCACACCACTCTCTTTATGTTAGGCGGAGTCACCTAGTGCAG | 3500 fluorescence intensity (a.u.) |
| CATGGACCCGGCCGCCAACGTACGCGACTCACAAGACGCACGGAGTCACCTAGTGCAG | 3260 fluorescence intensity (a.u.) |
| TCACCGCGCCGCCAGCGCTCCTCGGCCACCTCATTGGCAACGGAGTCACCTAGTGCAG | 3660 fluorescence intensity (a.u.) |
| TCCGTAATTTTGAATCCCTTGTATTGGTGGATAAATCAGACGGAGTCACCTAGTGCAG | 30000 fluorescence intensity (a.u.) |
| TTCCTCGCGCTCCCACGCCACGCAGCAGCCGCAGATCTCCCGGAGTCACCTAGTGCAG | 3630 fluorescence intensity (a.u.) |
| ATGAACAGTATCCAGTGGGGCGTCCACCTGACCGATTCAACGGAGTCACCTAGTGCAG | 4730 fluorescence intensity (a.u.) |
| TGGGCCAAGTCAACTGGTGCACGGTGGCAGCACGCAGCTGCGGAGTCACCTAGTGCAG | 3350 fluorescence intensity (a.u.) |
| ATAGATTTGATCATCAGTTGACACGTGCTATATACTCCCTCGGAGTCACCTAGTGCAG | 9750 fluorescence intensity (a.u.) |
| AGAATTGATCCGAATGTGGTTCAACTCACTACGCTCCAAACGGAGTCACCTAGTGCAG | 19800 fluorescence intensity (a.u.) |
| CCGGTATGTATAGTTTATGGTGTAAAATATCCGTTATTTGCGGAGTCACCTAGTGCAG | 4270 fluorescence intensity (a.u.) |
| ATCCATTGCTGCTTTCAGCTGAGTCACCAACTCCTATCCACGGAGTCACCTAGTGCAG | 14100 fluorescence intensity (a.u.) |
| CGGTCAGGGCGGGCGGCGTCGCCGGCGACGTGGCTGCTCGCGGAGTCACCTAGTGCAG | 3580 fluorescence intensity (a.u.) |
| TCGAATCCCTCTGCGTGGACACGTAGCGGGGAGAGGAAAACGGAGTCACCTAGTGCAG | 4390 fluorescence intensity (a.u.) |
| CAATTTGGCATTTACCACGATAACCACGTGGTTATTGTAGCGGAGTCACCTAGTGCAG | 6390 fluorescence intensity (a.u.) |

As entered above.
Entry for CAATTTGGCATTTACCACGATAACCACGTGGTTATTGTAGCGGAGTCACCTAGTGCAG under binding signal: 6390 fluorescence intensity (a.u.)
Entry for GGAGAGGCCCACTGTTTCTTCCACTTCTCGCCTTGCTCGCCGGAGTCACCTAGTGCAG under binding signal: 23900 fluorescence intensity (a.u.)
